Measured values published in patent US7671061B2, “Methods and compositions for treating pain” (Hydra Biosciences, Inc., priority 2005, dated 2010).
At least one read-out could not be matched to a standard name with certainty.

Assay: Plasma levels / pharmacokinetics in male Sprague-Dawley rat
Type: in vivo
Settings: oral 12 mg/kg suspension
Experimental: Compound 200 plasma levels were determined via HPLC/MS/MS following a single intravenous bolus dose of 0.9 mg/kg, an intraperitoneal dose of 12 mg/kg (suspension), and an oral dose of 12 mg/kg (suspension) in the male Sprague-Dawley rat. […] For intraperitoneal administration, Compound 200 was formulated as a uniform suspension in CMC (carboxymethylcellulose) at a target concentration of 1 mg/mL and administered at a dose volume of 10 mL/kg. For oral administration, Compound 200 was formulated as a uniform suspension in CMC (carboxymethylcellulose), at a target concentration of 1 mg/mL, administered by gavage, at a dose volume of 10 mL/kg, to the conscious, fasted, male Sprague-Dawley rat.

## CC(C)c1ccc(NC(=O)Cn2cnc3c2c(=O)n(C)c(=O)n3C)cc1 [Compound 200, 2-(1,3-dimethyl-2,6-dioxo-1,2,3,6-tetrahydropurin-7-yl)-N-(4-isopropylphenyl)acetamide]
  time at which Cmax occurred: 45 min
